# Experimental data taken from the supplement of paper PMC6411743.
# By UniProt entry, the sequences of proteins in these tests, tags left out. Where a name states a change or a piece, a line headed by the entry shows the natural chain unless it says otherwise.
# UniProt Q8WWI5: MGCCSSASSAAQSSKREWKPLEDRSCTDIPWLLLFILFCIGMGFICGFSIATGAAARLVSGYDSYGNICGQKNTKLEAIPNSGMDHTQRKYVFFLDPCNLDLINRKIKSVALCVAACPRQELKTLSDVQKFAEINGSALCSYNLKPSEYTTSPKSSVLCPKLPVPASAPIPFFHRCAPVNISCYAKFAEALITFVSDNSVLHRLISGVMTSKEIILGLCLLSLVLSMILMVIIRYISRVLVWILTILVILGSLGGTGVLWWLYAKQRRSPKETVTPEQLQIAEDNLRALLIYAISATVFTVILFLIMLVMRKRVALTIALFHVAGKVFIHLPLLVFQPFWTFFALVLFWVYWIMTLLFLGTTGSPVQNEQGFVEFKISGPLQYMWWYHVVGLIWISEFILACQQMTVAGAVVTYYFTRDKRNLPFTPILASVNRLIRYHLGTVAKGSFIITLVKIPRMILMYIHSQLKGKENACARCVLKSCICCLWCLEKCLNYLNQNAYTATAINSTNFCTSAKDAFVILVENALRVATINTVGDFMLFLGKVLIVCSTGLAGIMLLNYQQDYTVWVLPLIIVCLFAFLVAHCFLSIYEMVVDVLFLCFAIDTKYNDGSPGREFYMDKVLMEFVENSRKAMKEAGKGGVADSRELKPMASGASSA
# UniProt Q96A47: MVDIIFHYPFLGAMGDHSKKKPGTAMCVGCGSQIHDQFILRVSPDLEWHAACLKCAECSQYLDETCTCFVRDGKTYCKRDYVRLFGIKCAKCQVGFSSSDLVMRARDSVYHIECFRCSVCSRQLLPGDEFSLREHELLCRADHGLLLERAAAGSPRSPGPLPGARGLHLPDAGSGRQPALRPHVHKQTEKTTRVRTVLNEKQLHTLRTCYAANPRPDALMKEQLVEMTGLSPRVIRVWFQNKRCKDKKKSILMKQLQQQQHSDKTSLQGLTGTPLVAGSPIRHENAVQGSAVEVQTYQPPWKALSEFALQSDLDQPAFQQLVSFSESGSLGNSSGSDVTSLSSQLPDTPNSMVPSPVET
# UniProt Q8TDW0: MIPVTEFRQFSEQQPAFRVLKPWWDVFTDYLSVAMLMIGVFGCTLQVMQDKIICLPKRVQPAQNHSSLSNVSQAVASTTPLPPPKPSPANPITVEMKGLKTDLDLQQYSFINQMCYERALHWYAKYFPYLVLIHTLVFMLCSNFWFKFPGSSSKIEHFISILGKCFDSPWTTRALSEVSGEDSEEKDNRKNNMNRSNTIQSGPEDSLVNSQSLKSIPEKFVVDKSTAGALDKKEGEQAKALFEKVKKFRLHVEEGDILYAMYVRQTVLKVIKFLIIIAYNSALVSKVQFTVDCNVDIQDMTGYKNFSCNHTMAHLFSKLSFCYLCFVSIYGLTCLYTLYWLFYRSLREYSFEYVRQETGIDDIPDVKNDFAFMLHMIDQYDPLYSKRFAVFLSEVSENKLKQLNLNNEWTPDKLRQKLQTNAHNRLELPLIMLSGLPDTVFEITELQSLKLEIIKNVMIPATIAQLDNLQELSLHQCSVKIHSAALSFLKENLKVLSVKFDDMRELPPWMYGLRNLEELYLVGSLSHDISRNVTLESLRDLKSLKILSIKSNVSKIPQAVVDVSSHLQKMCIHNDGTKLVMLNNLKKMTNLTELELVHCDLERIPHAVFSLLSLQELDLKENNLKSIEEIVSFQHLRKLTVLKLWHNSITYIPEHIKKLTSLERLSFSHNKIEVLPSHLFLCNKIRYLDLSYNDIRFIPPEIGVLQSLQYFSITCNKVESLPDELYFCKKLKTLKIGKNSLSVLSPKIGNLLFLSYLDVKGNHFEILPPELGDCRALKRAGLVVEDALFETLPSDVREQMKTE
# UniProt Q8TEV9: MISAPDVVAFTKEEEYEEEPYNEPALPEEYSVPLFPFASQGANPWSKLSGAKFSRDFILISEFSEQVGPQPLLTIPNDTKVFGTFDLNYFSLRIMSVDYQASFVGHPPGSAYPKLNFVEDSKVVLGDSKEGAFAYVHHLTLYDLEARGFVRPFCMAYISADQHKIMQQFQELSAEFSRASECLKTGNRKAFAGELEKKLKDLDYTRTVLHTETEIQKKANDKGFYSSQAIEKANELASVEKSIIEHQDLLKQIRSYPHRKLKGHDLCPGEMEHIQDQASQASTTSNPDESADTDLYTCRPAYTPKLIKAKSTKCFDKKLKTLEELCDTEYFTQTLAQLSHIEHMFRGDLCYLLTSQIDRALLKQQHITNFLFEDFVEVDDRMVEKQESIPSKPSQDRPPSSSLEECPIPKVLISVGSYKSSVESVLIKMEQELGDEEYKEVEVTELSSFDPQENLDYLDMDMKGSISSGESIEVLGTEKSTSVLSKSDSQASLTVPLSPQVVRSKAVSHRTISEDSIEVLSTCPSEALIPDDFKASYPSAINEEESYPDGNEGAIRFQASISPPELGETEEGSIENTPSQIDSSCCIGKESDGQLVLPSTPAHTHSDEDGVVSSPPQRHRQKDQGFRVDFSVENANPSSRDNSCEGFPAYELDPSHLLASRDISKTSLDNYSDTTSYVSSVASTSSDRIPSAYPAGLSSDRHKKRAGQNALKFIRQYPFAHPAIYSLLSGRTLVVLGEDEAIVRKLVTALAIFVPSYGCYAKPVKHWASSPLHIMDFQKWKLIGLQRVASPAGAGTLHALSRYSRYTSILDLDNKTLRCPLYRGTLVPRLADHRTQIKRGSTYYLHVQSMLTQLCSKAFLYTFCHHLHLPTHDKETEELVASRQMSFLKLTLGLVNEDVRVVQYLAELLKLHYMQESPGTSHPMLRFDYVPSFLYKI
# UniProt Q8WZ82: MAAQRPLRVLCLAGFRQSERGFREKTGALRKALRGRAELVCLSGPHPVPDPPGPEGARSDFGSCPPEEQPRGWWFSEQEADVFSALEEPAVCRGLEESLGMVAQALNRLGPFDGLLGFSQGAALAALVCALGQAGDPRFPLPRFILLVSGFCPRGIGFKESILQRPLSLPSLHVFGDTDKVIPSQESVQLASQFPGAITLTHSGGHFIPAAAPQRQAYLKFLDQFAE
# UniProt Q8WVD3: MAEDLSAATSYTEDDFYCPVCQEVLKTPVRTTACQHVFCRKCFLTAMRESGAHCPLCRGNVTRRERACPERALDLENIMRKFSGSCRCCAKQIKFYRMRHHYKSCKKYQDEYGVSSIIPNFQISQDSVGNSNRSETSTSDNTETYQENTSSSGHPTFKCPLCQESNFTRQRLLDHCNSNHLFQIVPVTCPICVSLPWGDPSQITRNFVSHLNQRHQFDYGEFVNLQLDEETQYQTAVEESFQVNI
# UniProt Q92574: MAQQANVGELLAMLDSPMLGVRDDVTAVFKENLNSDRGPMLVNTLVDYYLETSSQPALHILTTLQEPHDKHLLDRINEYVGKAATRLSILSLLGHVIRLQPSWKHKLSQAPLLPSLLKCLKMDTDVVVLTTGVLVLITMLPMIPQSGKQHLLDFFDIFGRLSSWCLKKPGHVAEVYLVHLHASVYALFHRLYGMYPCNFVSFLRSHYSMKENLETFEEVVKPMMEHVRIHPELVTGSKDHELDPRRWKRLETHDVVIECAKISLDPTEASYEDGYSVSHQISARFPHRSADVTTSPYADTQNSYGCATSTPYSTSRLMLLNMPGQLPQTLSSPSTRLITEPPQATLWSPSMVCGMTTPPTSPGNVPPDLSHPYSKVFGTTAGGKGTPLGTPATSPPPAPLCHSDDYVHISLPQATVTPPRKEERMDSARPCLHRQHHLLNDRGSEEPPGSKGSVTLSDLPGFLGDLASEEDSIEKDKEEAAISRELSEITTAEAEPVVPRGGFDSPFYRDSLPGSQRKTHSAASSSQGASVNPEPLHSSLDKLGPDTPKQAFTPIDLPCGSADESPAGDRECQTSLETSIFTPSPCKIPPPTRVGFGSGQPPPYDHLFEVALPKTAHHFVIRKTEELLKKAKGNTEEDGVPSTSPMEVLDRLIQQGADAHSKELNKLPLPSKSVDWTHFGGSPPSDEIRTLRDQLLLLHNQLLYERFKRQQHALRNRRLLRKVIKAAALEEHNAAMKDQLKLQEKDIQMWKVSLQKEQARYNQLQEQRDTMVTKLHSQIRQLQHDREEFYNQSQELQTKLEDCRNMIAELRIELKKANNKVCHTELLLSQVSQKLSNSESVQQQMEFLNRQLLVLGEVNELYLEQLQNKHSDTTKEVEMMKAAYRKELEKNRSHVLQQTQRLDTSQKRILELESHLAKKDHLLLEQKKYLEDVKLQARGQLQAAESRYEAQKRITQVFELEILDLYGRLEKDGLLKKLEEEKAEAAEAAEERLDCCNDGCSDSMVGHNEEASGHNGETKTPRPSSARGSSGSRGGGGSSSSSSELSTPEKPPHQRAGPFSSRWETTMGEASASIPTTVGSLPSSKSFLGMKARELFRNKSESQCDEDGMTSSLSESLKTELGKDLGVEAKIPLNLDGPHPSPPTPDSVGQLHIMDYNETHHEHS
# UniProt Q8TCE6, whole entry: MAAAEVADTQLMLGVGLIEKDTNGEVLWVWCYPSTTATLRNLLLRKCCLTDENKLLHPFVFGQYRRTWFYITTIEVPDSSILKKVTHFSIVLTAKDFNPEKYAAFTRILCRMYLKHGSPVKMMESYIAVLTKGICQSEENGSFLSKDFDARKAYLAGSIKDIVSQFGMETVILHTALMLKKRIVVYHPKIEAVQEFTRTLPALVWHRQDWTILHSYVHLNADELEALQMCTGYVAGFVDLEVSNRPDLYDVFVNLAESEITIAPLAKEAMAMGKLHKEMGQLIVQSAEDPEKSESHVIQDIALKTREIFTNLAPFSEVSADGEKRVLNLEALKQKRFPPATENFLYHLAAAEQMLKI
# UniProt Q8WYQ5: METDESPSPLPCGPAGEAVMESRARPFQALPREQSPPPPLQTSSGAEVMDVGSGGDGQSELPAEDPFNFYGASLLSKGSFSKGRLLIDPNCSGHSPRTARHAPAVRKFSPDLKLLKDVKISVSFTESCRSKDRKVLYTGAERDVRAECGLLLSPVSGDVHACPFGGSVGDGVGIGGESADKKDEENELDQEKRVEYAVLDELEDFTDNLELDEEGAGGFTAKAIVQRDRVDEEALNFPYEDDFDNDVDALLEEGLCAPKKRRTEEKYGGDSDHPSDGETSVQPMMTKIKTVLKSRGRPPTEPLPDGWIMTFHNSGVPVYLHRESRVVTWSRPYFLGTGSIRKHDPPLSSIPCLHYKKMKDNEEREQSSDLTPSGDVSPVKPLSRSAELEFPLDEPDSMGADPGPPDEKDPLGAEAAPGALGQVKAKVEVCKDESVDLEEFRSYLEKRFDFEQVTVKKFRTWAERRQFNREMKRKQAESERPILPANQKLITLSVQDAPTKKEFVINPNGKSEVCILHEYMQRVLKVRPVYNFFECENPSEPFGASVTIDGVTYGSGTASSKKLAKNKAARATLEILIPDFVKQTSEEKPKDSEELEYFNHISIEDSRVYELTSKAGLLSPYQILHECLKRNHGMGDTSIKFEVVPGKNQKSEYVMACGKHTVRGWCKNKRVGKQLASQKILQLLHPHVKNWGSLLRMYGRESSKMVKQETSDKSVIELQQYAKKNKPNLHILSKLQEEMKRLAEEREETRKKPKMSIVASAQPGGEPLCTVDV
# UniProt Q8WVE0: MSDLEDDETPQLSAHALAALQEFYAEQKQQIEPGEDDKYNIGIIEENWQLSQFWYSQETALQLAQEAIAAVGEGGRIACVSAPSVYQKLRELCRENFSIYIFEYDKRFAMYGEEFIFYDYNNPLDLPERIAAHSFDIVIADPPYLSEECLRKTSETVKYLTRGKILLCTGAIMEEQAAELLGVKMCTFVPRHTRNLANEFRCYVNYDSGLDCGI
# UniProt Q8TCZ2: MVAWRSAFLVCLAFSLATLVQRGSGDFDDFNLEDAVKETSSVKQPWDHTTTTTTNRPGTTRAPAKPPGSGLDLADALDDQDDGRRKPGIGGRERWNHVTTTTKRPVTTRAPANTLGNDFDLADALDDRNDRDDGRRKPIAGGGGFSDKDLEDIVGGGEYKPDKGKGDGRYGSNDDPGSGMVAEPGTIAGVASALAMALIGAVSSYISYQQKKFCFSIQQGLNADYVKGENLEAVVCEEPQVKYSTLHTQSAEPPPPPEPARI
# UniProt Q92558: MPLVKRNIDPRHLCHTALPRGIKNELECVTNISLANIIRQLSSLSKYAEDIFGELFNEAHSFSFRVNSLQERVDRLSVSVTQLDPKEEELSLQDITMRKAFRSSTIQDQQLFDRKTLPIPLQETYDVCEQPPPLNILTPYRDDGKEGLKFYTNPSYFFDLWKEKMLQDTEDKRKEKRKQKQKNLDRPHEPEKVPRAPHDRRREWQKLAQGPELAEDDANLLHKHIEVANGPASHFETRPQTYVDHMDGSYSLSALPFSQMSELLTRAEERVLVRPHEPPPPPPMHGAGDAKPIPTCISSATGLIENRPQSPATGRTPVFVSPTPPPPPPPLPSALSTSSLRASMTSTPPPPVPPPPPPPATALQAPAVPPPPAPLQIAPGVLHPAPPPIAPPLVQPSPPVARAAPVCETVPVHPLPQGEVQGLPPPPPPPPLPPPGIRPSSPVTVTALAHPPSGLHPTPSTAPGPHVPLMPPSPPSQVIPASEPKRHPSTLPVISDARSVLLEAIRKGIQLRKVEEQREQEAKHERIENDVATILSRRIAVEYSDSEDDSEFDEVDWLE
# ± gives the standard deviation of the averaged measurements. This is a selection; strong and weak results do not stand in their true shares. Most values lie at the level of the controls, where differences are scatter.
# Compound: Nc1ncnc2c1ncn2[C@@H]1O[C@H](COP(=O)(O)OP(=O)(O)OP(=O)(O)O)[C@@H](O)[C@H]1O [adenosine triphosphate]
# Test: NP40-soluble protein abundance relative to vehicle (solubility fold change) (ratio); higher = more soluble protein in presence of ATP
# In short: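 Jurkat crude lysate prepared with a Dounce homogeniser was treated at eight concentrations spanning 0.1 to 10 mM, 10 min at room temperature then 3 min at 37 °C. Solubilisation with 0.8% NP40 and benzonase and ultracentrifugation preceded TMT labelling of the supernatant for LC-MS/MS. Fold change against the detergent-processed vehicle was determined per replicate from vsn-normalised intensities, across three independent experiments.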
Target,NP40-soluble protein abundance (concentration: 0.1mM),NP40-soluble protein abundance (concentration: 0.5mM)
SLC44A1 (UniProt Q8WWI5),1.006 ± 0.0087,0.961 ± 0.024
NUDT8 (UniProt Q8WV74),0.978 ± 0.082,0.923 ± 0.066
UniProt Q8TBE0 and related entries,1.06 ± 0.028,0.979 ± 0.041
ISL2 (UniProt Q96A47),0.962 ± 0.044,1.01 ± 0.056
TSR2 (UniProt Q969E8),0.914 ± 0.051,0.877 ± 0.11
LRRC8C (UniProt Q8TDW0),1.05 ± 0.081,1.14 ± 0.093
NT5C3B (UniProt Q969T7),1.02 ± 0.013,1.05 ± 0.055
UniProt Q8WXA9-2,1.13 ± 0.056,1.35 ± 0.095
LEO1 (UniProt Q8WVC0),0.9899 ± 0.0086,1.03 ± 0.05
SMCR8 (UniProt Q8TEV9),1.03 ± 0.035,1.01 ± 0.042
UniProt Q93084-2,1.03 ± 0.037,1.03 ± 0.025
LPP (UniProt Q93052),1.01 ± 0.059,0.981 ± 0.081
OVCA2 (UniProt Q8WZ82),0.989 ± 0.12,0.988 ± 0.2
RDH11 (UniProt Q8TC12),0.994 ± 0.039,1.01 ± 0.039
ZNF384 (UniProt Q8TF68),1.04 ± 0.11,1.06 ± 0.045
UniProt Q8WU76 and related entries,1.01 ± 0.062,1.01 ± 0.082
NEK7 (UniProt Q8TDX7),1.05 ± 0.031,1.06 ± 0.03
RABGGTA (UniProt Q92696),1.06 ± 0.085,1.03 ± 0.076
RNF138 (UniProt Q8WVD3),1.13 ± 0.16,1.04 ± 0.075
GEMIN5 (UniProt Q8TEQ6),1.04 ± 0.048,1.02 ± 0.015
UniProt Q8WUY1,0.973 ± 0.021,0.984 ± 0.028
SYMPK (UniProt Q92797),0.986 ± 0.022,1.01 ± 0.081
UniProt Q8TC07 and related entries,1.07 ± 0.1,1.05 ± 0.079
UniProt Q92738 and related entries,1.02 ± 0.13,1.02 ± 0.013

# Taken from above.
# NP40-soluble protein abundance (concentration: 0.5mM) with TSR2 (UniProt Q969E8) is entered as 0.877 ± 0.11
# NP40-soluble protein abundance (concentration: 0.5mM) with UniProt Q8WUY1 is entered as 0.984 ± 0.028
# NP40-soluble protein abundance (concentration: 0.5mM) with UniProt Q8WU76 and related entries is entered as 1.01 ± 0.082
# NP40-soluble protein abundance (concentration: 0.5mM) with NUDT8 (UniProt Q8WV74) is entered as 0.923 ± 0.066

# Next records follow.

Target,NP40-soluble protein abundance (concentration: 0.1mM),NP40-soluble protein abundance (concentration: 0.5mM)
UniProt Q8TF05 and related entries,1.08 ± 0.02,1.02 ± 0.065
PNPT1 (UniProt Q8TCS8),1.03 ± 0.059,1.02 ± 0.036
FAR1 (UniProt Q8WVX9),1 ± 0.027,1.03 ± 0.08
UniProt Q8TCA0 and related entries,0.988 ± 0.026,0.883 ± 0.057
COG1 (UniProt Q8WTW3),1.05 ± 0.048,0.951 ± 0.058
UniProt Q92574 and related entries,1.01 ± 0.039,0.945 ± 0.049
TMEM131 (UniProt Q92545),0.979 ± 0.11,1.02 ± 0.052
RNASEH2C (UniProt Q8TDP1),0.971 ± 0.018,0.959 ± 0.048
UniProt Q8TCE6 and related entries,1.03 ± 0.091,1 ± 0.059
NSUN6 (UniProt Q8TEA1),1.04 ± 0.051,1.04 ± 0.056
UniProt Q8WYQ5 and related entries,1.03 ± 0.016,1.15 ± 0.12
UniProt Q969N2 and related entries,0.9693 ± 0.0077,0.949 ± 0.066
UniProt Q92734 and related entries,0.931 ± 0.046,0.914 ± 0.042
UniProt Q92766 and related entries,1.01 ± 0.021,1.07 ± 0.055
SORL1 (UniProt Q92673),0.979 ± 0.021,0.942 ± 0.035
UniProt Q92599,1.09 ± 0.14,1.08 ± 0.17
DPF3 (UniProt Q92784),1.05 ± 0.069,1.03 ± 0.058
UniProt Q969V3 and related entries,1.05 ± 0.085,1.01 ± 0.013
UniProt Q8WVE0,1.01 ± 0.037,1.06 ± 0.088
UniProt Q8TCZ2 and related entries,0.931 ± 0.056,0.955 ± 0.054
UniProt Q93015 and related entries,0.9564 ± 0.0078,0.858 ± 0.043
UniProt Q8TE02 and related entries,1.02 ± 0.074,0.951 ± 0.14
WASF1 (UniProt Q92558),0.9718 ± 0.0027,0.985 ± 0.062
UniProt Q92896 and related entries,0.993 ± 0.015,1 ± 0.022
